This is an account of results in PMC6966528.

Assay [1] addresses E-cadherin (human (endogenous in MCF7 and HEK293T)). Briefly: co-IP; lysates of parental (nontransfected) and GFP-Syk-expressing MCF7 cells; ≈700 μg lysate with 2 μg antibody, protein-A/G Sepharose beads, 4 °C, 3 h; Western blot.
The target is the same in assay [2]. Briefly: co-IP; lysates of HEK293T cells transiently transfected or not with a FLAG-Syk plasmid; ≈700 μg lysate with 2 μg antibody, protein-A/G Sepharose beads, 4 °C, 3 h; Western blot.

Results are given in words; binding and its absence hold for the method and conditions named. Binding seen in cells or lysates may run through a third protein.

B1: Hakai E3 ubiquitin-ligase (protein, UniProt Q75N03 1-491)
chain: MDHTDNELQGTNSSGSLGGLDVRRRIPIKLISKQANKAKPAPRTQRTINRMPAKAPPGDEEGFDYNEEERYDCKGGELFANQRRFPGHLFWDFQINILGEKDDTPVHFCDKCGLPIKIYGRMIPCKHVFCYDCAILHEKKGDKMCPGCSDPVQRIEQCTRGSLFMCSIVQGCKRTYLSQRDLQAHINHRHMRAGKPVTRASLENVHPPIAPPPTEIPERFIMPPDKHHMSHIPPKQHIMMPPPPLQHVPHEHYNQPHEDIRAPPAELSMAPPPPRSVSQETFRISTRKHSNLITVPIQDDSNSGAREPPPPAPAPAHHHPEYQGQPVVSHPHHIMPPQQHYAPPPPPPPPISHPMPHPPQAAGTPHLVYSQAPPPPMTSAPPPITPPPGHIIAQMPPYMNHPPPGPPPPQHGGPPVTAPPPHHYNPNSLPQFTEDQGTLSPPFTQPGGMSPGIWPAPRGPPPPPRLQGPPSQTPLPGPHHPDQTRYRPYYQ
As to B1, the binding entry in assay [1] and in assay [2] was “no binding” in each case.
